According to PubChem BioAssay AID504834 (National Center for Advancing Translational Sciences (NCATS), 2011):
Screen size: about 320,000 compounds; about 22,000 (6.9%) were called active. Inconclusive results, whose numbers are uncertain, are shown with a selection of clear calls. The call rests on the fitted dose curve; in most records, active means well fitted inhibition curve with a large enough effect; inconclusive means small, poorly fitted or top-dose-only effect, or another doubt; inactive means no such curve, though single readings can be large or run the other way. A potency beside an inconclusive call is a rough fit, not a confirmed value.

Assay: Primary qHTS for delayed death inhibitors of the malarial parasite plastid, 96 hour incubation
Details: P. falciparum luciferase reporter growth; series mostly up to 28.7 µM; activity change, negative = inhibition: at the top concentration
Summary of the method: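 P. falciparum expressing integrated firefly luciferase grown in erythrocytes (2% hematocrit, 0.05% parasitemia final) with compounds for 96 hours at 37 C, 5% CO2. Growth inhibition read as loss of luminescence after adding luciferase detection reagent.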
On the % scale 0 is the no-effect control and ±100 the full control effect; potency means the concentration at half of the fitted maximal effect.

Row | SMILES | Potency | activity change, negative = inhibition
1 | O=C(CSc1nc2ccccc2s1)NCCOc1ccc(Cl)cc1 | inconclusive: 0.0586 µM [inhibitor, full curve, poor fit] | 
2 | COc1ccc(-c2cc(-c3ccccc3)nc(Cl)n2)cc1OC | inconclusive: 6.57 µM [inhibitor, single point] | 
3 | O=C(CSc1nnnn1C1CCCC1)c1ccc2c(c1)OCCO2 | inconclusive: 11.7 µM [inhibitor, partial curve, poor fit] | 
4 | Cc1ccc(NS(=O)(=O)c2cccc3nsnc23)cc1[N+](=O)[O-] |  | inactive: 0.867%
5 | COc1ccc(C2Nc3cccc4cccc(c34)N2)cc1Br | inconclusive: 10.4 µM [inhibitor, single point] | 
6 | CCc1cccc(NC(=O)Cn2c(=O)oc3cc(S(=O)(=O)N4CCOCC4)ccc32)c1 | inconclusive: 14.7 µM [inhibitor, single point] | 
7 | CC(C)(C)OC(=O)[C@H]1[C@H](c2ccc([N+](=O)[O-])cc2)C2(C(=O)c3ccccc3C2=O)C2c3ccccc3C=NN21 (stereo not given in full) | active: 1.85 µM | 
8 | O=C(Cc1ccc(-n2c(=O)[nH]c3ccsc3c2=O)cc1)N1CCN(c2ccc(Cl)cc2)CC1 | inconclusive: 14.7 µM [inhibitor, single point] | 
9 | O=C(CN1C(=O)NC2(CCCC2)C1=O)N1CCN(c2ccccc2Cl)CC1 |  | inactive: 49.5%
10 | CC(=O)c1ccc(N2C(=O)[C@@H]3C(C(=O)CCN4C(=O)c5ccccc5C4=O)=NN[C@@H]3C2=O)cc1 | active: 2.33 µM | 
11 | CSc1nnc(NC(=O)c2ccco2)s1 |  | inactive: 14.6%
12 | COc1ccc(CNC(=O)COC(=O)c2ccccn2)cc1 |  | inactive: -9.97%
13 | O=C(N/N=C/c1ccccc1)c1[nH]ncc1Br |  | inactive: -6.81%
14 | COc1ccc(OCc2cc(C(=O)N3CCCC(O)C3)no2)c2ccccc12 (stereo not given) | inconclusive: 13.1 µM [inhibitor, single point] | 
15 | CC(C)C(=O)NC(=S)Nc1sc2c(c1C(N)=O)CCCC2 |  | inactive: 39.3%
16 | Nc1nc(SCC(=O)Nc2ccccc2)nc2nc3c(cc12)CCCC3 |  | inactive: -15.9%
17 | COc1ccc(CCNC(=O)Nc2cccs2)c(OC)c1 |  | inactive: 26.2%
18 | CC(C(=O)Nc1ccccn1)(c1ccccc1)c1ccccc1 | inconclusive: 18.5 µM [inhibitor, single point] | 
19 | CSc1ccccc1NC(=O)c1ccc(N2CC3CC(C2)c2cccc(=O)n2C3)c(NC(=O)c2ccncc2)c1 (stereo not given) | inconclusive: 18.5 µM [inhibitor, single point] | 
20 | C[C@H](O)c1[nH]c2cc(F)ccc2c1[C@H](C)O | inconclusive: 18.5 µM [inhibitor, single point] | 
21 | C/C(=N\NC(=O)C(=O)Nc1ccc(C)cc1)c1ccncc1 |  | inactive: 20.8%
22 | O=C(CSc1nc(NS(=O)(=O)c2ccccc2)cc(=O)[nH]1)Nc1ccccc1C(F)(F)F | inconclusive: 11.7 µM [inhibitor, partial curve, poor fit] | 
23 | FC(F)Oc1ccc(/C=N/n2c(Cc3ccc(Br)cc3)n[nH]c2=S)cc1 | inconclusive: 10.4 µM [inhibitor, single point] | 
24 | OCC1(CCOc2ccccc2)CCN(Cc2cc(Cl)ccc2O)CC1 | inconclusive: 18.5 µM [inhibitor, single point] | 

Row | SMILES | Potency | activity change, negative = inhibition
25 | Cc1ccc(SCC(=O)OCC(=O)NCc2cccs2)cc1C | inconclusive: 18.5 µM [inhibitor, single point] | 
26 | O=[N+]([O-])c1cc(-c2ccc(/C=N/n3cnnc3)o2)ccc1Cl | inconclusive: 4.65 µM [inhibitor, partial curve, poor fit] | 
27 | CCN(CC)C(=S)NC(=O)Cc1ccccc1 | inconclusive: 3.7 µM [inhibitor, full curve, poor fit] | 
28 | COc1ccccc1NNC(=O)c1cc(C(C)(C)C)nn1Cc1ccccc1 | inconclusive: 18.5 µM [inhibitor, single point] | 
29 | C[C@@]12CCC3[C@@](CCC4[C@@]3(C)CCC[C@@]4(C)C(=O)N3CCCCC3)(CC1=O)C2 (stereo not given in full) |  | inactive: 29.2%
30 | Cc1cc2ncn(C3CC(=O)N(Cc4ccc(N5CCCC5=O)cc4)C3=O)c2cc1C (stereo not given) | active: 8.28 µM | 
31 | COc1ccccc1CNC(=O)C/C(C)=N/NC(=O)Cc1ccc(Cl)cc1 | inconclusive: 10.4 µM [inhibitor, single point] | 
32 | CCOc1ccc(S(=O)(=O)Nc2cccc(C(=O)NCC(c3ccco3)N3CCCC3)c2)cc1 (stereo not given) | inconclusive: 18.5 µM [inhibitor, single point] | 
33 | N#Cc1ccc(C(=O)N2CCN(S(=O)(=O)c3ccc(Cl)s3)CC2)cc1 |  | inactive: 10.1%
34 | COc1ccc(C2C(C(C)=O)=C(C)Nc3ncnn32)cc1 (stereo not given) | inconclusive: 13.1 µM [inhibitor, single point] | 
35 | COc1cccc(NC(=O)C(Sc2nnc(-c3ccncc3)n2-c2ccc(Cl)cc2)c2ccccc2)c1 (stereo not given) | inconclusive: 1.85 µM [inhibitor, full curve, poor fit] | 
36 | Cc1ccc(-c2nn(-c3cccc(F)c3)cc2CN2CCN(c3ccccn3)CC2)o1 |  | inactive: -25.7% [at 5.75 µM]
37 | C=CCOc1ccc(C2C(C#N)=C(N)N(Nc3ccccc3)C3=C2C(=O)CCC3)cc1OC (stereo not given) | active: 4.65 µM | 
38 | COc1ccc(S(=O)(=O)N2CCN(C(=O)CC3CC4CCC3C4)CC2)cc1 (stereo not given) | inconclusive: 16.5 µM [inhibitor, single point] | 
39 | O=C(COC(=O)CNC(=O)c1ccccc1)Nc1ccc(S(=O)(=O)N2CCCC2)cc1 | inconclusive: 0.738 µM [inhibitor, partial curve, poor fit] | 
40 | O=c1[nH]c(CN2CCN(c3ccccc3O)CC2)nc2scc(-c3ccccc3Cl)c12 | active: 9.28 µM | 
41 | CC1(C)C(N(O)C(=O)Nc2ccc(Cl)cc2)N(c2ccc(Cl)cc2)C(=O)N1CC(=O)NN (stereo not given) | active: 10.4 µM | 
42 | COc1ccc(C(=O)C2CCCN(Cc3cccn3-c3ccccn3)C2)cc1F (stereo not given) |  | inactive: -10.9%
43 | O=C(CCCN1C(=O)c2cccnc2C1=O)N1CC(=O)N(CCc2ccccc2)C(=O)C1 | inconclusive: 4.15 µM [inhibitor, single point] | 
44 | O=C(NCCCN1CCOCC1)C1CC(=O)N(C2CCCCC2)C1 (stereo not given) | inconclusive: 8.28 µM [inhibitor, partial curve, poor fit] | 
45 | O=C(Cn1ccn(-c2ccc(F)c(F)c2)c(=O)c1=O)NCCc1ccccc1 | inconclusive: 18.5 µM [inhibitor, single point] | 
46 | Nc1ncnc2c1cnn2C1CCCCC1 | inconclusive: 4.15 µM [inhibitor, single point] | 
47 | COc1ccc(C(CCN2CCCC(C)C2)c2c(OC)cc(OC)c3c(-c4ccccc4)cc(=O)oc23)cc1 (stereo not given) | active: 5.86 µM | 
48 | CC(CC(=O)NC1CCCCC1)S(=O)(=O)c1ccc2c(c1)NC(=O)CO2 (stereo not given) | active: 13.1 µM | 

Row | SMILES | Potency | activity change, negative = inhibition
49 | O=C(CSc1nnc(CNc2ccc(F)cc2)n1Cc1ccccc1)N1CCOCC1 | inconclusive: 5.22 µM [inhibitor, partial curve, poor fit] | 
50 | CC(=O)Oc1cccc(N2C(=O)c3cccc4c([N+](=O)[O-])ccc(c34)C2=O)c1 |  | inactive: -2.49%
51 | Cc1ccccc1OCCCC(=O)NC1CCCCC1 |  | inactive: 0%
52 | NC(=O)C1CCN(c2nc(-c3ccc([N+](=O)[O-])cc3)cs2)CC1 | inconclusive: 10.4 µM [activator, single point] | 
53 | CC(C)(C)N=Cc1c(O)ccc2oc3c(c12)CCCC3 |  | inactive: 7.26%
54 | CN(C(=O)Cc1c(C(=O)O)n(C)c2ccccc12)c1ccc(F)cc1 | inconclusive: 9.28 µM [inhibitor, single point] | 
55 | CCOc1ccc(-n2c(=S)sc3c(=O)n(-c4ccc(F)cc4)c(SCC(=O)O)nc32)cc1 |  | inactive: 4.34%
56 | CC1CCN(CCCCOc2ccc([N+](=O)[O-])cc2)CC1 | inconclusive: 0.329 µM [inhibitor, full curve] | 
57 | Cc1snc(S(=O)(=O)Cc2c(Cl)cccc2Cl)c1C#N | inconclusive: 0.0828 µM [inhibitor, full curve, poor fit] | 
58 | Cc1ccnc(N2C(=O)CSC2c2ccc(Cl)cc2)c1 (stereo not given) | inconclusive: 18.5 µM [inhibitor, single point] | 
59 | COc1ccc(Cc2nnc(Nc3ccc(Cl)cc3)[nH]c2=O)cc1 | inconclusive: 1.04 µM [inhibitor, partial curve, poor fit] | 
60 | CCOC(=O)Cn1cc(C(=O)c2ccccc2)c2ccccc21 | inconclusive: 0.0033 µM [inhibitor, full curve, poor fit] | 
61 | CNC(=O)CSCCn1c(SCC(=O)NC)nc2ccccc2c1=O | inconclusive: 5.22 µM [inhibitor, partial curve, poor fit] | 
62 | CC(=O)c1cccc(NC(=O)c2ccc(NC(=O)CC3SC(N4CCCCC4)=NC3=O)cc2)c1 (stereo not given) | inconclusive: 10.4 µM [inhibitor, partial curve] | 
63 | COc1ccc(S(=O)(=O)NCCc2cn3nc(C)c(C)nc3n2)cc1F |  | inactive: 36.2%
64 | CCc1cc(OCCOCCN(C)C)ccc1Cl |  | inactive: 11.8%
65 | Cn1cc(NC(=O)CCl)cn1 | inconclusive: 0.0738 µM [inhibitor, full curve, poor fit] | 
66 | O=C(OCC(=O)N1CCN(c2ccccc2)CC1)c1ccc2ncsc2c1 | active: 11.7 µM | 
67 | OCC(O)C(O)C(O)C(O)c1nc2ccccc2[nH]1 (stereo not given) | inconclusive: 11.7 µM [inhibitor, single point] | 
68 | CC(C(=O)Nc1ccc(F)cc1Cl)N1CCN(S(=O)(=O)c2cccs2)CC1 (stereo not given) | inconclusive: 18.5 µM [inhibitor, single point] | 
69 | Cc1cc2nc(/N=C(\N)NC(=O)C(C)C)nc(C)c2cc1C | active: 2.62 µM | 
70 | CCC1(c2ccccc2)ON(c2c(Br)cccc2Br)C1=O (stereo not given) | active: 0.415 µM | 

Sorted by molar mass (descending): some entries from above.
Row | SMILES | Potency | activity change, negative = inhibition
55 | CCOc1ccc(-n2c(=S)sc3c(=O)n(-c4ccc(F)cc4)c(SCC(=O)O)nc32)cc1 |  | inactive: 4.34%
68 | CC(C(=O)Nc1ccc(F)cc1Cl)N1CCN(S(=O)(=O)c2cccs2)CC1 (stereo not given) | inconclusive: 18.5 µM [inhibitor, single point] | 
66 | O=C(OCC(=O)N1CCN(c2ccccc2)CC1)c1ccc2ncsc2c1 | active: 11.7 µM | 
58 | Cc1ccnc(N2C(=O)CSC2c2ccc(Cl)cc2)c1 (stereo not given) | inconclusive: 18.5 µM [inhibitor, single point] | 
